Measurements from the supplement of paper PMC12823440, “Inhibitors supercharge kinase turnover through native proteolytic circuits” (Nature, 2025).
The other results are listed elsewhere or left out. Hit calls seldom repeat between salt and free forms of one compound.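 In K562 cells expressing nanoluciferase-fused kinases, luminescence was recorded at 4 h intervals between 2 and 18 h, normalized as percent of control with DMSO at 100% and a positive control at 0%. A significant (2 sigma) signal drop marks a time point as decreased. The authors' rule for a hit is not shown and takes in more than the number of time points.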

Protein sequences, listed by entry. Tags and fused reporters are not part of them. Lines headed by an entry give the natural chain unless they say otherwise; changes in a name come on top.
UniProt Q15208: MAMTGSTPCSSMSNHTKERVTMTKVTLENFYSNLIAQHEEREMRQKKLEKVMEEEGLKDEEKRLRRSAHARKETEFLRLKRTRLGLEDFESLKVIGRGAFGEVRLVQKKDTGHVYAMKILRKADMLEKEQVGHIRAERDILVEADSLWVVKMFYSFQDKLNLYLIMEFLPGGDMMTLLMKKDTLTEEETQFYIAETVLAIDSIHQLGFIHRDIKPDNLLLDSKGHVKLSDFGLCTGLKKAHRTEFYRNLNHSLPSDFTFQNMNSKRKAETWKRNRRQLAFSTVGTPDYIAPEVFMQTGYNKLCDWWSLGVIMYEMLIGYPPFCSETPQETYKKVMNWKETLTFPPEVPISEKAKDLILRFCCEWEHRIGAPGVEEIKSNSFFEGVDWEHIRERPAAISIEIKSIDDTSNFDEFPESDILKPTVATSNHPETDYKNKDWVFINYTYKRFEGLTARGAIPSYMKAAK
UniProt P42680: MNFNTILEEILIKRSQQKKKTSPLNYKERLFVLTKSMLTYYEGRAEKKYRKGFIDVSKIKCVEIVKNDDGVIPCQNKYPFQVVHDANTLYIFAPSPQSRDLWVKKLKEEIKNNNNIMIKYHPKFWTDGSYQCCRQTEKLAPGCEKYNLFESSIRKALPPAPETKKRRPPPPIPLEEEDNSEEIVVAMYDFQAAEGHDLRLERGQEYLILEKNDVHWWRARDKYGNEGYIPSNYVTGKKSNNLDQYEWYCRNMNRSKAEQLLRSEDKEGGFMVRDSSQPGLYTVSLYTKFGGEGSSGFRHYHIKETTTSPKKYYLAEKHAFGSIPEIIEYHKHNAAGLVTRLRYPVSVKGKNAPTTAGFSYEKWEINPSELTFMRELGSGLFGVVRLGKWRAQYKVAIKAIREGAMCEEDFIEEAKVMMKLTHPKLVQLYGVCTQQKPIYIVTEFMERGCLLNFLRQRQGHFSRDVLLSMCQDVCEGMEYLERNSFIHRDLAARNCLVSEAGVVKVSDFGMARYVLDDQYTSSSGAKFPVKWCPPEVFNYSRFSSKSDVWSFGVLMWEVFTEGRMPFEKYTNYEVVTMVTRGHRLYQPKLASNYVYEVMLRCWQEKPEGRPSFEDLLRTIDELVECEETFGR
UniProt P29597: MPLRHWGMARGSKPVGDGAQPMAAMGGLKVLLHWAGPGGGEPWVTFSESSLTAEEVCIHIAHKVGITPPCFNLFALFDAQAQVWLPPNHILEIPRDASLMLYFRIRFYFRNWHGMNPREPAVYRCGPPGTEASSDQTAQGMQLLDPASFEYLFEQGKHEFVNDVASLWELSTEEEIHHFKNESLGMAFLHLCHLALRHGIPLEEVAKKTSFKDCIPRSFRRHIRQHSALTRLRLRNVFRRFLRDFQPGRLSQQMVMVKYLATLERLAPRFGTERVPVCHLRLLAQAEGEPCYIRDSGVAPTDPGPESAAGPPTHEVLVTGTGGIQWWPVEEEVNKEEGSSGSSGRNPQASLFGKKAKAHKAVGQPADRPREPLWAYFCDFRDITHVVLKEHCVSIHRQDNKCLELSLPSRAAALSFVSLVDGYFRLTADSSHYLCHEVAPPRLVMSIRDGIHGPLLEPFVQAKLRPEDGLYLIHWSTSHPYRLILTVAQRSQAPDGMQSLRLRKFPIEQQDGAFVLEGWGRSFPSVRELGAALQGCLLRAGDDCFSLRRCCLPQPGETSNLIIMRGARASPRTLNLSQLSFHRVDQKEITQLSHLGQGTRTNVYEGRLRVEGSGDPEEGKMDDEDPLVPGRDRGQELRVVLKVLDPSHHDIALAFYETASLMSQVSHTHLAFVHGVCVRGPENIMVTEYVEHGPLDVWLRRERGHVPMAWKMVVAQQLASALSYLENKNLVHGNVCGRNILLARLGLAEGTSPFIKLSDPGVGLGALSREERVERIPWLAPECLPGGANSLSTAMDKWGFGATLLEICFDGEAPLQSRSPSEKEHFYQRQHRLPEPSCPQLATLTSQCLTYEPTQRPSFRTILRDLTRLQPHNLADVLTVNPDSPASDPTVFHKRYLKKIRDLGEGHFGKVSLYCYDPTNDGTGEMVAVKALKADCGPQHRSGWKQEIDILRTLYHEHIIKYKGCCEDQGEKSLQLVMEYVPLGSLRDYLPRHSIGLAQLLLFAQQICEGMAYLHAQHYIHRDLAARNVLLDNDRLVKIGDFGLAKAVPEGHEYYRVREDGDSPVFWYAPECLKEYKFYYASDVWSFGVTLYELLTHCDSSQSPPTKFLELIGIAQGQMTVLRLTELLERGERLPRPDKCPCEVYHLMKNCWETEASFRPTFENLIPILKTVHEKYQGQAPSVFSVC
UniProt Q6PHR2: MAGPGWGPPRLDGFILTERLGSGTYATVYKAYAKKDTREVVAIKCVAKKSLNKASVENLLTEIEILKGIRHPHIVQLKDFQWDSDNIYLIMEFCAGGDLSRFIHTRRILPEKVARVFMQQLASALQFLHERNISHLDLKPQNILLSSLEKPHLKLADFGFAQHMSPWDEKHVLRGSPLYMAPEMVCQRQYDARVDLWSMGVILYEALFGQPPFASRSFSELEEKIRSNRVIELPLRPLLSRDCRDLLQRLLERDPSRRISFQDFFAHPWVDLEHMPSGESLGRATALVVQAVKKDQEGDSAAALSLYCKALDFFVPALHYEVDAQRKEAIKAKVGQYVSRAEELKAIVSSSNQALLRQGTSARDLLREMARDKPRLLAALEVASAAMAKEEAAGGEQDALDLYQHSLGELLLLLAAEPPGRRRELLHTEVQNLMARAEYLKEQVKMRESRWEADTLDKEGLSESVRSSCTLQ
UniProt P07947, whole entry, looked up: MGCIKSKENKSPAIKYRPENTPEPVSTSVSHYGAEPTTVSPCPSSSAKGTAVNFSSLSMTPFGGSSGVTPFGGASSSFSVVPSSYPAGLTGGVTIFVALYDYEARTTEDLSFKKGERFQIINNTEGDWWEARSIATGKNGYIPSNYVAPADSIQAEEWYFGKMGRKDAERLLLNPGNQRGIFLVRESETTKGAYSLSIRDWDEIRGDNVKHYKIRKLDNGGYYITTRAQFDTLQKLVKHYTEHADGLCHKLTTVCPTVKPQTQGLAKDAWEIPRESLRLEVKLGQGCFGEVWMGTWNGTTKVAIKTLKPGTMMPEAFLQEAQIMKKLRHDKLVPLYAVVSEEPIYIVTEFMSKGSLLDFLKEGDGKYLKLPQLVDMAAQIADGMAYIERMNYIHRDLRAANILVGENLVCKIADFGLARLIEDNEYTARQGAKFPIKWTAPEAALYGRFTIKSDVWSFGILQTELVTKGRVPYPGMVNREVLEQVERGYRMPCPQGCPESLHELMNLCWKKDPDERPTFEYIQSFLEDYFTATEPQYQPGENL
UniProt P43403: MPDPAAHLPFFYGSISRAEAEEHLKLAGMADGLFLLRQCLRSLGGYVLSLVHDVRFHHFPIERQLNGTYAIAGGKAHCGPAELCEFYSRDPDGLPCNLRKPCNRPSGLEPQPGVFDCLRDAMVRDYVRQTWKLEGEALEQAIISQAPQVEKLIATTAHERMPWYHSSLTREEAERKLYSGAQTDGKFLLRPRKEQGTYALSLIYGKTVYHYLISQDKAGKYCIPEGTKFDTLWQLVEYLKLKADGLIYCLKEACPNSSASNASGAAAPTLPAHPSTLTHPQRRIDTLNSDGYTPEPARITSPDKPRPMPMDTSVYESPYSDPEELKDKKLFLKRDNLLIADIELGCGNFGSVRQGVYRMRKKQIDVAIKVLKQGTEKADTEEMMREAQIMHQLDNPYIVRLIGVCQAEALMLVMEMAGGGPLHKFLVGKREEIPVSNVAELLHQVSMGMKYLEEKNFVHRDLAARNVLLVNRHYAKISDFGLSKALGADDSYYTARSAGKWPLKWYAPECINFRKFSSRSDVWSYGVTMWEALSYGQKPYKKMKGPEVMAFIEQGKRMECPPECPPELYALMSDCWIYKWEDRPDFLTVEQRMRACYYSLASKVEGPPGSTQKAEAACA
UniProt P00519, whole entry: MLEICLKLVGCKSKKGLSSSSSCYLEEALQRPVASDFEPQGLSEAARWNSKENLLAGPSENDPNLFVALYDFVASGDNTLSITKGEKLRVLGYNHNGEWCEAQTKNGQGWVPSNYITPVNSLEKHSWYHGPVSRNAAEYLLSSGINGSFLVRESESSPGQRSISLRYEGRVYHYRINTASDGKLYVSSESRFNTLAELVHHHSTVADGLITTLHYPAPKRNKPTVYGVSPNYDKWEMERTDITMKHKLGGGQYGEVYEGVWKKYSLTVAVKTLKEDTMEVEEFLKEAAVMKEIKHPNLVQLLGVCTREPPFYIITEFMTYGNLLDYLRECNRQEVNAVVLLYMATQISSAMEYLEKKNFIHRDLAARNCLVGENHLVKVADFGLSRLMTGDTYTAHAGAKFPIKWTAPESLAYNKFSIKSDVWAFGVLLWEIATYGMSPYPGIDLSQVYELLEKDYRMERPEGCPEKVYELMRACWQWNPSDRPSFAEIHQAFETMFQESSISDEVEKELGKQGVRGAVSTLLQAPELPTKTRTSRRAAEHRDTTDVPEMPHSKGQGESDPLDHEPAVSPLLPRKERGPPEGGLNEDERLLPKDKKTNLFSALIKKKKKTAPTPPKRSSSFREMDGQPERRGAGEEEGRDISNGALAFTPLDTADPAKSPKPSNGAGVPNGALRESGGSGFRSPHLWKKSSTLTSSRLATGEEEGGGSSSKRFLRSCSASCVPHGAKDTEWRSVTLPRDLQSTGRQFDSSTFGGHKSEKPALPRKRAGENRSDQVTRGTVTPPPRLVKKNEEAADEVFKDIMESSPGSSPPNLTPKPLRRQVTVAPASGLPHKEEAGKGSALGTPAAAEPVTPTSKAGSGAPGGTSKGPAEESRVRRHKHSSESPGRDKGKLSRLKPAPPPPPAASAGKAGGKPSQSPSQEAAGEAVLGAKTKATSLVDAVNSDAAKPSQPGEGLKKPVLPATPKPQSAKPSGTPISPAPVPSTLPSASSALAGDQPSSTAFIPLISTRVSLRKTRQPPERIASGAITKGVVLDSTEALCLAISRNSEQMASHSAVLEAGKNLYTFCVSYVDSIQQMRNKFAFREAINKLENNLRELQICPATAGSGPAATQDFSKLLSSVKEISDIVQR
UniProt P31749: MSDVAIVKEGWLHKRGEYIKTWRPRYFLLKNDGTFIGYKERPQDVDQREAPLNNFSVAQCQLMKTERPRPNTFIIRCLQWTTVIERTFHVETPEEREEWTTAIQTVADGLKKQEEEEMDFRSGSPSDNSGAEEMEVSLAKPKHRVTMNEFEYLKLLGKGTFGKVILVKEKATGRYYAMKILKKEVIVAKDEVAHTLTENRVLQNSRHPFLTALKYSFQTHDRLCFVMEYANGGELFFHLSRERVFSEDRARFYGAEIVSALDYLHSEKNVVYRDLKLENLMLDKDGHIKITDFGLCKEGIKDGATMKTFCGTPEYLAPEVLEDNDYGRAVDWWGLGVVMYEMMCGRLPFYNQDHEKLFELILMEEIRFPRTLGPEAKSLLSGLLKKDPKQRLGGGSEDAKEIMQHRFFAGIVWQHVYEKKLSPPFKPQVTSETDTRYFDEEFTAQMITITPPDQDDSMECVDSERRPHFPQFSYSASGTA

How the values were obtained:
Details in all cases: K562; 2-18 h
STK38 = STK38 (UniProt Q15208); assay: kinase-Nluc reporter destabilization hit call (1 = scored as downregulated) (binary); higher = compound decreases kinase abundance
SYK = SYK (UniProt P43405); assay: as above
TEC = TEC (UniProt P42680); assay: as above
TYK2 = TYK2 (UniProt P29597); assay: as above
ULK3 = ULK3 (UniProt Q6PHR2); assay: as above
YES1 = YES1 (UniProt P07947); assay: as above
ZAK = ZAK (UniProt Q9NYL2); assay: as above
ZAP70 = ZAP70 (UniProt P43403); assay: as above
ABL1 = ABL1 (UniProt P00519); assay: number of time points (of 5) at which kinase-Nluc abundance scored as decreased, DMSO-normalised (count); higher = more persistent destabilization
AKT1 = AKT1 (UniProt P31749); assay: as above

CCC(F)(F)c1cc(N2CCC(S(C)(=O)=O)CC2)nc2sc(C(N)=O)c(N)c12 (10 µM)
0: number of time points (ABL1) | number of time points (AKT1)
inactive: kinase-Nluc reporter destabilization hit call (STK38) 0 | kinase-Nluc reporter destabilization hit call (SYK) 0 | kinase-Nluc reporter destabilization hit call (TEC) 0 | kinase-Nluc reporter destabilization hit call (TYK2) 0 | kinase-Nluc reporter destabilization hit call (ULK3) 0 | kinase-Nluc reporter destabilization hit call (YES1) 0 | kinase-Nluc reporter destabilization hit call (ZAK) 0 | kinase-Nluc reporter destabilization hit call (ZAP70) 0

COc1cc(Nc2ccnc3ccc(Br)cc23)cc(OC)c1OC (2.5 µM)
2: number of time points (ABL1)
inactive: kinase-Nluc reporter destabilization hit call (STK38) 0 | kinase-Nluc reporter destabilization hit call (SYK) 0 | kinase-Nluc reporter destabilization hit call (TEC) 0 | kinase-Nluc reporter destabilization hit call (TYK2) 0 | kinase-Nluc reporter destabilization hit call (ULK3) 0 | kinase-Nluc reporter destabilization hit call (YES1) 0 | kinase-Nluc reporter destabilization hit call (ZAK) 0 | kinase-Nluc reporter destabilization hit call (ZAP70) 0
0: number of time points (AKT1)

N#C/C(=C/c1ccc(O)c(O)c1)C(=O)N1CCc2ccccc21 [Tyrphostin AG 528] (10 µM)
inactive: kinase-Nluc reporter destabilization hit call (STK38) 0 | kinase-Nluc reporter destabilization hit call (SYK) 0 | kinase-Nluc reporter destabilization hit call (TEC) 0 | kinase-Nluc reporter destabilization hit call (TYK2) 0 | kinase-Nluc reporter destabilization hit call (ULK3) 0 | kinase-Nluc reporter destabilization hit call (YES1) 0 | kinase-Nluc reporter destabilization hit call (ZAK) 0 | kinase-Nluc reporter destabilization hit call (ZAP70) 0
0: number of time points (ABL1) | number of time points (AKT1)

Pulled one by one from the list above (2):
COc1cc(Nc2ccnc3ccc(Br)cc23)cc(OC)c1OC (2.5 µM)
2: number of time points (ABL1)
inactive: kinase-Nluc reporter destabilization hit call (STK38) 0 | kinase-Nluc reporter destabilization hit call (SYK) 0 | kinase-Nluc reporter destabilization hit call (TEC) 0 | kinase-Nluc reporter destabilization hit call (TYK2) 0 | kinase-Nluc reporter destabilization hit call (ULK3) 0 | kinase-Nluc reporter destabilization hit call (YES1) 0 | kinase-Nluc reporter destabilization hit call (ZAK) 0 | kinase-Nluc reporter destabilization hit call (ZAP70) 0
0: number of time points (AKT1)

N#C/C(=C/c1ccc(O)c(O)c1)C(=O)N1CCc2ccccc21 [Tyrphostin AG 528] (10 µM)
inactive: kinase-Nluc reporter destabilization hit call (STK38) 0 | kinase-Nluc reporter destabilization hit call (SYK) 0 | kinase-Nluc reporter destabilization hit call (TEC) 0 | kinase-Nluc reporter destabilization hit call (TYK2) 0 | kinase-Nluc reporter destabilization hit call (ULK3) 0 | kinase-Nluc reporter destabilization hit call (YES1) 0 | kinase-Nluc reporter destabilization hit call (ZAK) 0 | kinase-Nluc reporter destabilization hit call (ZAP70) 0
0: number of time points (ABL1) | number of time points (AKT1)

(list continues)

COc1ccc2nc3ccc(OC)cc3c(SCCCN)c2c1 (10 µM)
0: number of time points (AKT1)
inactive: kinase-Nluc reporter destabilization hit call (STK38) 0 | kinase-Nluc reporter destabilization hit call (SYK) 0 | kinase-Nluc reporter destabilization hit call (TEC) 0 | kinase-Nluc reporter destabilization hit call (TYK2) 0 | kinase-Nluc reporter destabilization hit call (ULK3) 0 | kinase-Nluc reporter destabilization hit call (YES1) 0 | kinase-Nluc reporter destabilization hit call (ZAK) 0 | kinase-Nluc reporter destabilization hit call (ZAP70) 0
4: number of time points (ABL1)

CCCCNc1ncc(C(=O)NCc2ccc(-n3ccnc3)cc2)c(NC2CCC(O)CC2)n1 (stereo not given) (10 µM)
inactive: kinase-Nluc reporter destabilization hit call (STK38) 0 | kinase-Nluc reporter destabilization hit call (SYK) 0 | kinase-Nluc reporter destabilization hit call (TEC) 0 | kinase-Nluc reporter destabilization hit call (TYK2) 0 | kinase-Nluc reporter destabilization hit call (ULK3) 0 | kinase-Nluc reporter destabilization hit call (YES1) 0 | kinase-Nluc reporter destabilization hit call (ZAK) 0 | kinase-Nluc reporter destabilization hit call (ZAP70) 0
0: number of time points (AKT1)
5: number of time points (ABL1)

CC(=O)O[C@@H]1[C@@H](OC(C)=O)[C@@H](O)[C@H](Oc2c(-c3ccc(O)cc3)oc3cc(O)cc(O)c3c2=O)O[C@H]1C (10 µM)
inactive: kinase-Nluc reporter destabilization hit call (STK38) 0 | kinase-Nluc reporter destabilization hit call (SYK) 0 | kinase-Nluc reporter destabilization hit call (TEC) 0 | kinase-Nluc reporter destabilization hit call (TYK2) 0 | kinase-Nluc reporter destabilization hit call (ULK3) 0 | kinase-Nluc reporter destabilization hit call (YES1) 0 | kinase-Nluc reporter destabilization hit call (ZAK) 0 | kinase-Nluc reporter destabilization hit call (ZAP70) 0
0: number of time points (ABL1) | number of time points (AKT1)

COc1ccc(-c2cc(=O)c3c(O)cc(O)cc3o2)cc1-c1c(O)cc(O)c2c(=O)cc(-c3ccc(O)cc3)oc12 [Bilobetin] (2.5 µM)
inactive: kinase-Nluc reporter destabilization hit call (STK38) 0 | kinase-Nluc reporter destabilization hit call (SYK) 0 | kinase-Nluc reporter destabilization hit call (TEC) 0 | kinase-Nluc reporter destabilization hit call (TYK2) 0 | kinase-Nluc reporter destabilization hit call (ULK3) 0 | kinase-Nluc reporter destabilization hit call (YES1) 0 | kinase-Nluc reporter destabilization hit call (ZAK) 0 | kinase-Nluc reporter destabilization hit call (ZAP70) 0
0: number of time points (ABL1) | number of time points (AKT1)

CC(C)Cn1ncc2cc(Oc3ccc(F)cc3F)c(C(=O)NCCN(C)C)cc21 [p38α inhibitor 1] (10 µM)
0: number of time points (ABL1) | number of time points (AKT1)
inactive: kinase-Nluc reporter destabilization hit call (STK38) 0 | kinase-Nluc reporter destabilization hit call (SYK) 0 | kinase-Nluc reporter destabilization hit call (TEC) 0 | kinase-Nluc reporter destabilization hit call (TYK2) 0 | kinase-Nluc reporter destabilization hit call (ULK3) 0 | kinase-Nluc reporter destabilization hit call (YES1) 0 | kinase-Nluc reporter destabilization hit call (ZAK) 0 | kinase-Nluc reporter destabilization hit call (ZAP70) 0

N#CC(=C(/N)Sc1ccccc1N)/C(C#N)=C(\N)Sc1ccccc1N (10 µM)
active: kinase-Nluc reporter destabilization hit call (ULK3) 1
inactive: kinase-Nluc reporter destabilization hit call (STK38) 0 | kinase-Nluc reporter destabilization hit call (SYK) 0 | kinase-Nluc reporter destabilization hit call (TEC) 0 | kinase-Nluc reporter destabilization hit call (TYK2) 0 | kinase-Nluc reporter destabilization hit call (YES1) 0 | kinase-Nluc reporter destabilization hit call (ZAK) 0 | kinase-Nluc reporter destabilization hit call (ZAP70) 0
0: number of time points (ABL1) | number of time points (AKT1)

O=C1NC(=O)C(Cc2c[nH]c3c(Cl)cccc23)N1 (stereo not given) [Necroptosis-IN-1] (10 µM)
0: number of time points (ABL1) | number of time points (AKT1)
inactive: kinase-Nluc reporter destabilization hit call (STK38) 0 | kinase-Nluc reporter destabilization hit call (SYK) 0 | kinase-Nluc reporter destabilization hit call (TEC) 0 | kinase-Nluc reporter destabilization hit call (TYK2) 0 | kinase-Nluc reporter destabilization hit call (ULK3) 0 | kinase-Nluc reporter destabilization hit call (YES1) 0 | kinase-Nluc reporter destabilization hit call (ZAK) 0 | kinase-Nluc reporter destabilization hit call (ZAP70) 0

O=C(COc1ccc(Cl)cc1)NC1CCC(NC(=O)COc2ccc(Cl)cc2)CC1 (stereo not drawn) [ISRIB (trans-isomer)] (10 µM)
inactive: kinase-Nluc reporter destabilization hit call (STK38) 0 | kinase-Nluc reporter destabilization hit call (SYK) 0 | kinase-Nluc reporter destabilization hit call (TEC) 0 | kinase-Nluc reporter destabilization hit call (TYK2) 0 | kinase-Nluc reporter destabilization hit call (ULK3) 0 | kinase-Nluc reporter destabilization hit call (YES1) 0 | kinase-Nluc reporter destabilization hit call (ZAK) 0 | kinase-Nluc reporter destabilization hit call (ZAP70) 0
0: number of time points (ABL1) | number of time points (AKT1)

COc1cc2ncnc(Nc3cc(Br)c(O)c(Br)c3)c2cc1OC (2.5 µM)
inactive: kinase-Nluc reporter destabilization hit call (STK38) 0 | kinase-Nluc reporter destabilization hit call (SYK) 0 | kinase-Nluc reporter destabilization hit call (TEC) 0 | kinase-Nluc reporter destabilization hit call (TYK2) 0 | kinase-Nluc reporter destabilization hit call (ULK3) 0 | kinase-Nluc reporter destabilization hit call (YES1) 0 | kinase-Nluc reporter destabilization hit call (ZAK) 0 | kinase-Nluc reporter destabilization hit call (ZAP70) 0
0: number of time points (ABL1) | number of time points (AKT1)

CNCCOc1ccccc1C1(Nc2nccn(-c3cc(C(=O)NC4CC4)cc(F)c3C)c2=O)CC1 (10 µM)
0: number of time points (ABL1) | number of time points (AKT1)
inactive: kinase-Nluc reporter destabilization hit call (STK38) 0 | kinase-Nluc reporter destabilization hit call (SYK) 0 | kinase-Nluc reporter destabilization hit call (TEC) 0 | kinase-Nluc reporter destabilization hit call (TYK2) 0 | kinase-Nluc reporter destabilization hit call (ULK3) 0 | kinase-Nluc reporter destabilization hit call (YES1) 0 | kinase-Nluc reporter destabilization hit call (ZAK) 0 | kinase-Nluc reporter destabilization hit call (ZAP70) 0

Cc1cc(N2CCOCC2)ccc1Nc1nc(NC2CCCCC2)c2[nH]cnc2n1 (10 µM)
inactive: kinase-Nluc reporter destabilization hit call (STK38) 0 | kinase-Nluc reporter destabilization hit call (SYK) 0 | kinase-Nluc reporter destabilization hit call (TEC) 0 | kinase-Nluc reporter destabilization hit call (TYK2) 0 | kinase-Nluc reporter destabilization hit call (ULK3) 0 | kinase-Nluc reporter destabilization hit call (YES1) 0 | kinase-Nluc reporter destabilization hit call (ZAK) 0 | kinase-Nluc reporter destabilization hit call (ZAP70) 0
0: number of time points (ABL1) | number of time points (AKT1)

CO[C@]1(C(=O)N[C@@H](C)c2ccc(-n3cc(F)cn3)nc2)CC[C@H](c2nc(C)cc(Nc3cc(C)[nH]n3)n2)CC1 [Pralsetinib] (10 µM)
0: number of time points (ABL1) | number of time points (AKT1)
inactive: kinase-Nluc reporter destabilization hit call (STK38) 0 | kinase-Nluc reporter destabilization hit call (SYK) 0 | kinase-Nluc reporter destabilization hit call (TEC) 0 | kinase-Nluc reporter destabilization hit call (TYK2) 0 | kinase-Nluc reporter destabilization hit call (ULK3) 0 | kinase-Nluc reporter destabilization hit call (YES1) 0 | kinase-Nluc reporter destabilization hit call (ZAK) 0 | kinase-Nluc reporter destabilization hit call (ZAP70) 0

COCCNc1cc(NC(=O)N2CCCc3cc(CN4CCOCC4=O)c(C=O)nc32)ncc1C#N (10 µM)
0: number of time points (ABL1) | number of time points (AKT1)
inactive: kinase-Nluc reporter destabilization hit call (STK38) 0 | kinase-Nluc reporter destabilization hit call (SYK) 0 | kinase-Nluc reporter destabilization hit call (TEC) 0 | kinase-Nluc reporter destabilization hit call (TYK2) 0 | kinase-Nluc reporter destabilization hit call (ULK3) 0 | kinase-Nluc reporter destabilization hit call (YES1) 0 | kinase-Nluc reporter destabilization hit call (ZAK) 0 | kinase-Nluc reporter destabilization hit call (ZAP70) 0

O=c1cc(N2CCOCC2)oc2c(-c3cccc4c3sc3ccccc34)cccc12 (10 µM)
0: number of time points (ABL1) | number of time points (AKT1)
inactive: kinase-Nluc reporter destabilization hit call (STK38) 0 | kinase-Nluc reporter destabilization hit call (SYK) 0 | kinase-Nluc reporter destabilization hit call (TEC) 0 | kinase-Nluc reporter destabilization hit call (TYK2) 0 | kinase-Nluc reporter destabilization hit call (ULK3) 0 | kinase-Nluc reporter destabilization hit call (YES1) 0 | kinase-Nluc reporter destabilization hit call (ZAK) 0 | kinase-Nluc reporter destabilization hit call (ZAP70) 0
